Experimental data as given in patent US20240117054A1 (DRAGONFLY THERAPEUTICS, published 2024).
These are yes or no findings as the source states them, for the method shown. Some results given as binding are weak or reduced against the parent protein; the word gives no strength.

Chains of the proteins cited; added tags and fusions are not shown. Residues count along the entry.
UniProt P36888, residues 27-541: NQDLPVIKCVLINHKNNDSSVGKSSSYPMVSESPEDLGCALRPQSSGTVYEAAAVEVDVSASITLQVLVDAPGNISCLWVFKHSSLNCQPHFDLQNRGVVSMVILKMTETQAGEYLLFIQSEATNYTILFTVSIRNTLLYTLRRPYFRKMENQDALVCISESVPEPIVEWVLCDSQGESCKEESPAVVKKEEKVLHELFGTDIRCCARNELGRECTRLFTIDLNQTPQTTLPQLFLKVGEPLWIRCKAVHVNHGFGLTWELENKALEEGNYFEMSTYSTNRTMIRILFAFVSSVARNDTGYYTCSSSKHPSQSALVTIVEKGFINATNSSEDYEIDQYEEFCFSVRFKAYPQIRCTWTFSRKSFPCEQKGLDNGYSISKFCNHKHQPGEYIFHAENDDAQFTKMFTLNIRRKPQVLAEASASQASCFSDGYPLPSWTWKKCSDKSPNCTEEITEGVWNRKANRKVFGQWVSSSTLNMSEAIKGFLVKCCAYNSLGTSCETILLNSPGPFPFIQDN

What was measured:
hFLT3-His fusion protein = molecular target: T1, hFLT3-His fusion protein (human, UniProt P36888 27-541, limits assumed); test: SPR, purified murine subclone, hFLT3-His, 1:1 binding fit
T1 construct: Soluble recombinant antigen used for immunisation, ELISA, SPR and BLI binning; also called recombinant hFLT3 protein; not shown: His tag

[1] = molecular target: cynomolgus monkey FLT3 (cFLT3) expressed on RMA cells (cynomolgus monkey); test: flow cytometry on RMA-cFLT3 cells, anti-human IgG secondary
[2] = molecular target: cynomolgus monkey FLT3 (cFLT3) expressed on RMA cells (cynomolgus monkey); test: flow cytometry on RMA-cFLT3 cells, anti-human IgG secondary antibody, fold over background (FOB)
[3] = molecular target: cynomolgus monkey FLT3 (cFLT3) expressed on RMA cells (cynomolgus monkey); test: flow cytometry, purified mAb on RMA-cFLT3 cells

Binder | binding [3] | also measured
4A4.H7 (antibody, V domains shown) VH: EVQLQESGPELVKPGASVKISCKASGYSFTGYYIHWVKQSPEESLEWIGEIYPNTGITTYNQKFTAKATLTVDKSSNTAYMQLKSLTSEDSAVYYCTRWGDYYGRDYWGQGTSVTVSS VL: DIVLTQSPASLAVSLGQRATISCRASETVDTHGNSFMHWYQQKPGQPPKLLIYRASNLESGIPARFSGSGSRTDFTLTINPVEADDVATYYCQQSNEDPRTFGGGTKLEIK |  | binding (hFLT3-His fusion protein): binds
GB102 monoclonal antibody in the human IgG1 format (antibody, V domains shown, also called parental mAb) VH: QVQLVQSGAEVKKPGASVKVSCKASGYTFTRYVMHWVRQAPGQRLEWMGFINPYNDDTKYNEKFKGRVTITRDTSASTAYMELSSLRSEDTAVYYCARWRQLGSLDSWGQGTTVTVSS VL: DIVMTQSPDSLAVSLGERATINCRASESVDTYGSSFVHWYQQKPGQPPKLLIYLASNLESGVPDRFSGSGSGTDFTLTISSLQAEDVAVYYCQQNNEEPWTFGGGTKVEIK |  | binding [1]: binds; binding [2]: binds
1A2.A3 (antibody, V domains shown, Purified murine mAb from a hybridoma subclone) VH: EVQLQESGPELVKPGASVKISCKASGYSFTGYYIHWVKQSPEESLEWIGEIYPNTGITTYNQKFTAKATLTVDKSSNTAYMQLKSLTSEDSAVYYCTRWGDYYGRDYWGQGTSVTVSS VL: DIVLTQSPASLAVSLGQRATISCRASETVDTHGNSFMHWYQQKPGQPPKLLIYRASNLESGIPARFSGSGSRTDFTLTINPVEADDVATYYCQQSNEDPRTFGGGTKLEIK | binds | 
4A4.A3 (antibody, V domains shown, Purified murine mAb from a hybridoma subclone) VH: QVTLKESGPGILQPSQTLSLTCSFSGFSLTTYGMGVGWIRQPSGKGLEWLANIWFNDNKYYNSTLKSRLTISKDTSNNQVFLKISSVDTTDTATYYCAQITTVVGTFDYWGQGSPLTVSP VL: RIVMTQSPTTMAASPGEKITITCSASSSISSIYLHWYQQKPGFSPKLLIFRTSDLASGVPPRFGGSGSGTSYSLTIGTMEAEDVATYYCQQGSSFPRTFGGGTKLEIK | binds | 
4H2.E3 (antibody, V domains shown, Purified murine mAb from a hybridoma subclone) VH: EVQLQESGPELVKPGASVKMSCKASGYTFTSYLMHWMKQKPGQGLEWIGYINPYSDGIKYNEKFRDKATLTSDKSSNTAYMELSSLTSEDSAVYYCAHSSGYVGYAMDYWGQGTSVTVSS VL: GIVMTQTTPSVPVTPGESVSISCRSSKSLLHSNGNTYLYWFLQRPGQSPQLLIYRMSNLASGVPDRFSGSGSGTTFTLRISRVEAEDVGVYYCMQHLEYPFTFGSGTKLEIK | binds | 
11F4.B9 (antibody, V domains shown, Purified murine mAb from a hybridoma subclone) VH: EVQLQESGPELVKPGASVKISCKASGYSFTGYYIHWVKQGPEKSLEWIGEIIPSTGSTIYNQKFKAKATLTVDKSSSTAYLQLKSLTSEDSAVYYCERWGDYYGRDYWGQGTSVTVSS VL: DIVLTQSPASLAVSLGQRATISCRASESVDIYGNSFMHWYQQKPGQPPKLLIYRASNLESGIPARFSGSGSRTDFTLTINPVEADDVATYYCQQSNEDPRTFGGGTKLEIK | binds | 
12H10.G7 (antibody, V domains shown, Purified murine mAb from a hybridoma subclone) VH: EVQLQESGPELVKPGASVKMSCKASGYTFTRYVMHWVKQRPGQGLEWIGFINPYNDDTKYNEKFKGKATLTSDKSSSTAYMELSSLTSEDSAVYHCARWRQLGSLDSWGQGTTLTVSS VL: NIVLTQSPASLAVSLGQRATISCRASESVDTYGSSFVHWYQQKPGQPPKLLIYLASNLESGVPARFSGSGSRSDFTLTIDPVEADDAATYYCQQNNEEPWTFGGGTKLEIK | binds | 
14A5.E8 (antibody, V domains shown, Purified murine mAb from a hybridoma subclone) VH: EVQLQESGAELVQPGASVRLSCKASGYTFTSYWINWVKQRPGQGLEWIGNIYPGSSIINYNENFKNRATLTVDTSSSTAYMQLSSLTSDDSAVYYCARRVVYLYFDYWGQGTTLTVSS VL: QIVLTQSPAIMSASPGEKVTMTCSASSSVSYMHWYQQKSGTSPKRWIYDTSKLASGVPARFSGSGSGTSYSLTISSMEAEDAATYYCQQWTSKSPTFGGGTKLEIK | binds | 
15A11.C8 (antibody, V domains shown, Purified murine mAb from a hybridoma subclone) VH: EVQLQESGGGLVKTGGSRKLSCAASGFTFSDYGMHWVRHTPEKGLEWVVYISSGGNTIFYTDTVKGRFTISRDNAKNTLFLQMTSLRSEDTAVYFCVRQGYYYAMDYWGQGASVTVSS VL: DIQMTQTTSSLSASLGDRVTIRCRASQDITNYLNWYQQKPDGAVKLLISYTSILQSGVPSRFSGSGSGTDYSLTISNLEQGDVATYFCQQGSSLPWTFGGGTKLEIK | binds | 
